PubChem BioAssay AID1224829 – NIAID, 2016

Assay: 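Secondary check of hits that alter LPS-induced p65 translocation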 (follow-up of hits)
Cells: mouse RAW264.7 G9 macrophage reporter cells
Reagent: single siRNA against mouse genes, 100 nM
Timing: 2 days of siRNA knock-down, then 40 min of LPS before fixing
Treatment: LPS (Salmonella minnesota R595) at 10 ng/ml
Detection: 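High-content images after 40 min LPS exposure; GFP-p65 nucleus to surrounding ring signal ratio, normalised to plate median and non-targeting control wells, expressed as z-score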
Direction: p65 translocation z-score and gene median z-score, per vendor: higher = more nuclear NF-kappaB p65 after LPS
Hit rule: 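Active means the replicate-mean z-score lies beyond plus or minus 2, in either direction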
Calls: active = changed p65 translocation (either direction); inactive = no clear change
Here is one part, drawn at random, of about 3,800 reagents. 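Calls cover raised and lowered translocation; gene median uses one vendor's three siRNAs; qiagen siRNAs acted more weakly than ambion siRNAs.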 Unmarked entries are inactive. Reagents against one gene are numbered here.

p65 translocation z-score, replicate mean | p65 translocation z-score, replicate 1 | p65 translocation z-score, replicate 2 | gene median z-score, per vendor | gene symbol | siRNA no. | siRNA vendor or control pool
-6.72 (active) | -7.5 | -5.94 | -5.67 | Cdx1 (caudal type homeobox 1) | 1 | ambion single siRNA
-4.87 (active) | -4.34 | -5.39 | -5.67 | Cdx1 (caudal type homeobox 1) | 2 | ambion single siRNA
– | – | – | -5.67 | Cdx1 (caudal type homeobox 1) | 3 | ambion single siRNA
2.14 (active) | 1.85 | 2.44 | 1.82 | Cdx1 (caudal type homeobox 1) | 4 | qiagen single siRNA
2.55 (active) | 1.79 | 3.31 | 1.82 | Cdx1 (caudal type homeobox 1) | 5 | qiagen single siRNA
-2.11 (active) | -1.77 | -2.44 | 1.82 | Cdx1 (caudal type homeobox 1) | 6 | qiagen single siRNA
-0.884 | -1.52 | -0.25 | -1.68 | Rps29 (ribosomal protein S29) | 1 | ambion single siRNA
-2.85 (active) | -1.92 | -3.79 | -1.68 | Rps29 (ribosomal protein S29) | 2 | ambion single siRNA
-0.521 | 0.806 | -1.85 | -1.68 | Rps29 (ribosomal protein S29) | 3 | ambion single siRNA
-0.612 | -0.172 | -1.05 | -1.57 | Rps29 (ribosomal protein S29) | 4 | qiagen single siRNA
-4.26 (active) | -4.26 | – | -1.57 | Rps29 (ribosomal protein S29) | 5 | qiagen single siRNA
-2.09 (active) | -2.09 | – | -1.57 | Rps29 (ribosomal protein S29) | 6 | qiagen single siRNA
0.65 | 0.914 | 0.386 | -0.0243 | Nedd4 | 1 | ambion single siRNA
-0.718 | -0.718 | – | -0.0243 | Nedd4 | 2 | ambion single siRNA
-1.57 | -3.12 | -0.0243 | -0.0243 | Nedd4 | 3 | ambion single siRNA
1.44 | 0.932 | 1.94 | 0.239 | Nedd4 | 4 | qiagen single siRNA
-0.598 | -0.743 | -0.454 | 0.239 | Nedd4 | 5 | qiagen single siRNA
0.256 | -0.485 | 0.997 | 0.239 | Nedd4 | 6 | qiagen single siRNA
-4.96 (active) | -6.24 | -3.67 | -1.23 | Cnpy3 (canopy FGF signaling regulator 3) | 1 | ambion single siRNA
0.546 | 0.0305 | 1.06 | -1.23 | Cnpy3 (canopy FGF signaling regulator 3) | 2 | ambion single siRNA
-1.23 | -1.26 | -1.2 | -1.23 | Cnpy3 (canopy FGF signaling regulator 3) | 3 | ambion single siRNA
-0.486 | -1.24 | 0.266 | -1.2 | Cnpy3 (canopy FGF signaling regulator 3) | 4 | qiagen single siRNA
-0.988 | -0.988 | – | -1.2 | Cnpy3 (canopy FGF signaling regulator 3) | 5 | qiagen single siRNA
-2.43 (active) | -3.66 | -1.2 | -1.2 | Cnpy3 (canopy FGF signaling regulator 3) | 6 | qiagen single siRNA

Looked up above:
Value of Rps29 (ribosomal protein S29) #4, siRNA vendor or control pool qiagen single siRNA under “p65 translocation z-score, replicate mean”: -0.612
Result of Cnpy3 (canopy FGF signaling regulator 3) #4, siRNA vendor or control pool qiagen single siRNA in “p65 translocation z-score, replicate 1”: -1.24
Cnpy3 (canopy FGF signaling regulator 3) #5, siRNA vendor or control pool qiagen single siRNA, p65 translocation z-score, replicate mean → -0.988
